Results are given in words; binding and its absence hold for the method and conditions named. Some entries that bind do so weakly or less than the wild type. One block for each binder: values may come before it.
Tests used:
[1] = molecular target: insulin-like growth factor II (IGF-II), amino acids 1-67 (human) (UniProt P01344); test: SPR: DX-2647 captured through its Fc, free IGF-II injected; concentration not on the sheet
[2] = molecular target: IGF-IIE (amino acids 1-104 of pro-IGF-II) (human) (UniProt P01344); test: SPR, IgG captured on anti-human Fc chip, ligand as analyte
[3] = molecular target: insulin-like growth factor II (IGF-II), amino acids 1-67 (human) (UniProt P01344); test: SPR, Fc-captured antibody
[4] = molecular target: insulin-like growth factor I (IGF-I) (UniProt P05019); test: SPR (BIAcore)
[5] = molecular target: insulin-like growth factor II (IGF-II), amino acids 1-67 (human) (UniProt P01344); test: SPR (BIAcore)
[6] = molecular target: insulin-like growth factor II (IGF-II), amino acids 1-67 (human) (UniProt P01344); test: phage selection and sFab ELISA
[7] = molecular target: IGF-IIE (amino acids 1-104 of pro-IGF-II) (human) (UniProt P01344); test: phage selection and sFab ELISA

Amino acid sequences for entries named in this document (tags omitted). A change or cut given only in a name is not applied to a line headed by its entry. Residues count along the entry.
UniProt P01344: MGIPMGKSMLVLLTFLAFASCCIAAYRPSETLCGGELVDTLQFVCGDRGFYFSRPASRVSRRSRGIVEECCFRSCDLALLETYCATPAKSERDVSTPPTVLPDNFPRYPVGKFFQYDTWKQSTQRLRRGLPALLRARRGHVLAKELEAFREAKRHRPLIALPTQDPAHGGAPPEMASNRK
UniProt P05019, residues 49-118: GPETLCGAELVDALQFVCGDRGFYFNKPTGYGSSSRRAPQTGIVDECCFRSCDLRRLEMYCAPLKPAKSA

binding [1]: binds
binding [2]: binds
binding [3]: binds
binding [4]: binds
binding [5]: binds
B1: DX-2647 (antibody, human IgG1, kappa, V domains shown)
VH: EVQLLESGGGLVQPGGSLRLSCAASGFTFSNYIMWWVRQAPGKGLEWVSVISSSGGGTLYADSVKGRFTISRDNSKNTLYLQMNSLRAEDTAVYYCARDNGDYVGEKGFDIWGQGTMVTVSS
VL: DIQMTQSPSSLSASVGDRVTITCRASQSISNYLNWYQQKPGKAPKLLIYTASTLQSGVPSRFSGSGSGTDFTLTISSLQPEDFATYYCQQSYNSPWTFGQGTKVEIKR

binding [6]: binds
binding [7]: binds
B2: M0070-H08 Fab (Fab, V domains shown)
VH: EVQLLESGGGLVQPGGSLRLSCAASGFTFSRYWMIWVRQAPGKGLEWVSSIRSSGETKYADSVKGRFTISRDNSKNTLYLQMNSLRAEDTAVYYCARGPLSDYYDSSGYYFDAFDIWGQGTMVTVSS
VL: DIQMTQSPSSLSASAGDRVTITCRASQSISSYLNWYQQKPGKAPNLLIYTTSNLQGGVPSRFSGSGSGTDFTLTISSLQPEDFATYYCQQGYSFPLTFGGGTKVEIKR

Reference: patent US20110165145A1, “IGF-II/IGF-IIE BINDING PROTEINS” (priority 2008, published 2011)
